From article doi:10.1101/2025.08.05.668778 (bioRxiv, 2025)
These are yes or no findings as the source states them, for the method shown.

Amino acid sequences for entries named in this document (tags omitted). Residues count along the entry.
UniProt P19401, residues 42-545: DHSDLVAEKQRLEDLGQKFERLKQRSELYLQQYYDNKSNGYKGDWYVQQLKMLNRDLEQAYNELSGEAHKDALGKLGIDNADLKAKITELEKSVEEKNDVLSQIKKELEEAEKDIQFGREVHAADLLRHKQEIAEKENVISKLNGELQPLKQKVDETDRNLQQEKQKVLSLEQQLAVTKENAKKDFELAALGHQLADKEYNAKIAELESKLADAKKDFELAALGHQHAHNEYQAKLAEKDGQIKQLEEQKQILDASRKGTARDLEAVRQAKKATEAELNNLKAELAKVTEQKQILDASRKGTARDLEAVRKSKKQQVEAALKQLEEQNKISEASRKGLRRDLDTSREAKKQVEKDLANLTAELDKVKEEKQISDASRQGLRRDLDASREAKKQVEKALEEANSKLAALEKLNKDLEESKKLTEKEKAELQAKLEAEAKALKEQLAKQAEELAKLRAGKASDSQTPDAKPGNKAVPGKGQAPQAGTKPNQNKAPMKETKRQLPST
UniProt P08603, residues 19-1231: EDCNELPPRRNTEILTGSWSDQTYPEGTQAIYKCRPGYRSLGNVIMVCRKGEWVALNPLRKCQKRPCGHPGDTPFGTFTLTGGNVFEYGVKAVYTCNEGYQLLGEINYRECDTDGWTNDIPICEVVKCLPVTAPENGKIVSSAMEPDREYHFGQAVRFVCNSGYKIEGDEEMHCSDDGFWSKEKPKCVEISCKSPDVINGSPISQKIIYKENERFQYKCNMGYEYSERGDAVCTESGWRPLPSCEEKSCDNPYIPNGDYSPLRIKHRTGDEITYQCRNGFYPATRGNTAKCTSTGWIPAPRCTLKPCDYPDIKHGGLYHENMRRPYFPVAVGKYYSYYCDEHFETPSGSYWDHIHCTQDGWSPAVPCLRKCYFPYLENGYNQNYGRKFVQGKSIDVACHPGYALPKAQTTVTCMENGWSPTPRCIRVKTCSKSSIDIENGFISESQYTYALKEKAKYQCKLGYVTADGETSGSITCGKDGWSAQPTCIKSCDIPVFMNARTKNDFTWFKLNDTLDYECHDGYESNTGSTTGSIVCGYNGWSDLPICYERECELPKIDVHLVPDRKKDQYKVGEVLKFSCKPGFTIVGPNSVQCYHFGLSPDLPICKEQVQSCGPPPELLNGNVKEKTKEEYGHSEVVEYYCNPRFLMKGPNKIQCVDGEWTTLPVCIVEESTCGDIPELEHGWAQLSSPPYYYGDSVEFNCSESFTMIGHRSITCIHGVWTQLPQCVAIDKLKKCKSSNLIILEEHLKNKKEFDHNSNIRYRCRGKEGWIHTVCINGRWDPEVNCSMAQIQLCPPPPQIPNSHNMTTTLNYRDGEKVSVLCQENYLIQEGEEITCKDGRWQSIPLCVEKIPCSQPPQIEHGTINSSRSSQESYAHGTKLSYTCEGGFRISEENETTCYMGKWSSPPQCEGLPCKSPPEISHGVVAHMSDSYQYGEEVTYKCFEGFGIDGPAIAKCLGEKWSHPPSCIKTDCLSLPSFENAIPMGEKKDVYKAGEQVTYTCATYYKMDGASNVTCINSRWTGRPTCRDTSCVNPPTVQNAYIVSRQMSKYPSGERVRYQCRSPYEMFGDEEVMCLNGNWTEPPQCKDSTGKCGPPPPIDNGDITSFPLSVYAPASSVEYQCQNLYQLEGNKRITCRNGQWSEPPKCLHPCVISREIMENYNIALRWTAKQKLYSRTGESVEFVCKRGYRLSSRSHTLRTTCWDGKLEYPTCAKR

Target: M12 protein (Streptococcus pyogenes) (UniProt P19401)
Assay: ELISA; M, Enn or FbaA protein coated on wells (20 μg/ml in PBS pH 7.2, overnight 4 °C); soluble intact factor H 10 μg/ml, 1 h, RT; bound FH detected with mouse monoclonal anti-human FH and HRP anti-mouse IgG; uncoated wells subtracted; values normalized to wild type; both purified

factor H (intact) (from UniProt P08603 19-1231)
binding: no binding (tested: 10 μg/ml factor H)
